Measurements reported in PubChem BioAssay AID540276 (National Center for Advancing Translational Sciences (NCATS), 2011).
Values joined by “and” are separate entries in the source; they are usually repeats but may differ in a detail not shown here. Equal entries are not always repeated. Out of some 300,000 compounds screened, about 5,400 (1.8%) were called active. This list was built around the results that the source calls inconclusive (neither active nor inactive); the mix of calls is not that of the screen. Calls come from the whole dose curve; tested in HEK293 cells. Potencies beside an inconclusive call are fits to weak or partial responses and may not hold up.

Experiment: qHTS for inhibitors of binding or entry into cells for Marburg Virus
Details: Marburg virus pseudotyped entry inhibition, cell reporter; activity change, negative = inhibition: at 37.8 µM (top of the series) unless noted
% is set by controls: 0 for no effect and ±100 for the full control effect; potency is the fitted concentration of half-maximal effect.

SMILES	Potency	activity change, negative = inhibition
O=C(NC(Cc1c[nH]c2ccccc12)c1nnc2n1CCCCC2)c1ccc(Cl)cc1 (stereo not given)	inconclusive: 5.8 µM [inhibitor, partial curve]	–
O=C(COc1ccc(Cl)cc1)N1CCN(C(=O)c2ccccc2F)CC1	–	inactive: -1.12% [at 46.1 µM]
COc1cc(C(=O)NNC(=S)NC(=O)c2ccc(Cl)cc2)cc(OC)c1OC	inconclusive: 2.31 µM [activator, partial curve]	–
O=C(CCN1C(=O)/C(=C/c2ccccc2F)SC1=S)N[C@@H](CO)Cc1ccccc1	inconclusive: 22.4 µM [inhibitor, single point]	–
COc1ccc(C(=O)NNC(=O)c2cccc(S(=O)(=O)N3CCOCC3)c2)cc1	–	inactive: 21.9% [at 46.1 µM]
COc1ccc2nc(C)cc(NCc3cccc(C(F)(F)F)c3)c2c1	inconclusive: 11.2 µM [inhibitor, partial curve, poor fit]	–
CC1=C(C(=O)c2ccccc2)C(c2cn(-c3ccccc3)nc2-c2ccc(Cl)cc2)NC(=S)N1 (stereo not given)	inconclusive: 5.17 µM [inhibitor, full curve, poor fit]	–
O=C(c1cc2c(Cl)nc3ccccc3c2s1)N1CCCCC1	inconclusive: 7.08 µM [activator, full curve]	–
O=C(NC1CCCCC1)N1CCc2ccccc2C1	inconclusive: 10 µM [inhibitor, single point]	–
CCN(CC)CCCNc1nc(-c2ccccc2)nc2ccccc12	active: 16.4 µM	–
CCC(C)NC(=O)c1ccc(NC(=O)C2CCCO2)cc1 (stereo not given)	–	inactive: -5.27%
Cc1ccc(Oc2coc3cc(OC(=O)c4cccs4)ccc3c2=O)cc1	inconclusive: 14.6 µM [activator, partial curve]	–
COC(=O)C1=C(C)N(c2ccc(Cl)cc2)/C(=C/c2ccc(O)cc2)C1=O	inconclusive: 6.31 µM [inhibitor, full curve, poor fit]	–
NCCc1c(-c2ccccc2)n(-c2ccccc2)c2ccccc12	active: 12.6 µM	–
CCOc1ccccc1NC(=O)Cn1c(=O)sc2ccccc21	–	inactive: 24.5% [at 46.1 µM]
CCN1CCN(C(=O)C2c3cc(OC)c(OC)cc3C(=O)N3CCc4ccccc4C23)CC1 (stereo not given)	–	inactive: -11%
Cc1ccc(NC(=O)CCNC(=O)c2ccc(Cl)cc2)cc1F	inconclusive: 15.8 µM [activator, single point]	–
COc1ccc(CC(=O)OCC(=O)Nc2cc(S(=O)(=O)N3CCOCC3)ccc2N2CCCC2)cc1	inconclusive: 0.562 µM [inhibitor, partial curve, poor fit]	–
O=C(C1CCCN(C2CC(=O)N(c3ccc(F)cc3)C2=O)C1)N1CCCC1 (stereo not given)	inconclusive: 5.62 µM [inhibitor, single point]	–
CC(=O)NC(CCCN1C(=O)c2ccccc2C1=O)c1nnn(C)n1 (stereo not given)	inconclusive: 1.26 µM [activator, single point]	–
O=C(NCCc1ccccc1)c1ccc(Cl)c([N+](=O)[O-])c1	–	inactive: 3.42%
COC(=O)CSc1nnc(CSc2nc(C)cc(C)n2)o1	inconclusive: 2.51 µM [inhibitor, partial curve, poor fit]	–
C=CCC(=O)NC1CC(C)(C)Cc2c1cnn2-c1ccccc1C (stereo not given)	–	inactive: -7.68%
COC(=O)c1ccc(-c2ncc[nH]2)cc1	–	inactive: 6.82%

SMILES	Potency	activity change, negative = inhibition
Cc1[nH]nc(Sc2ccccn2)c1[N+](=O)[O-]	–	inactive: 3.37%
CC1CC(C)CN(CC(C)(C)NS(=O)(=O)c2ccc(Cl)cc2)C1 (stereo not given)	inconclusive: 35.5 µM [inhibitor, single point]	–
Cc1ccc(SCC(=O)NN2C(=O)c3ccccc3C2=O)cc1	–	inactive: 1.77% [at 46.1 µM]
O=C(CSCc1c(F)cccc1Cl)NNC(=S)NC1CCCCC1	–	inactive: -0.751%
CCOc1ccccc1NC(=O)CSc1nc2c(oc3ccccc32)c(=O)n1-c1ccc(F)cc1	inconclusive: 17.8 µM [inhibitor, partial curve, poor fit]	–
Cc1ccc(C)c(CSC2=NCCN2S(=O)(=O)c2ccccc2)c1	inconclusive: 17.8 µM [inhibitor, partial curve, poor fit]	–
Cn1c(=O)c2cc(S(=O)(=O)NC(C(=O)NCc3ccccn3)c3ccccc3)ccc2n(C)c1=O (stereo not given)	–	inactive: -0.875%
Clc1cc(Br)ccc1OCCCn1ccnc1	inconclusive: 1 µM [inhibitor, single point]	–
CN(C)S(=O)(=O)c1cc(NC(=O)CNCc2ccccc2)ccc1Cl	inconclusive: 35.5 µM [inhibitor, single point]	–
CNc1ncnc2c1ncn2[C@H]1C[C@H](OP(=O)(O)O)[C@@H](COP(=O)(O)O)O1	inconclusive: 10 µM [inhibitor, partial curve]	–
Cc1ccccc1NC(=O)C1CC(=O)N(c2ccc3c4c(cccc24)CC3)C1 (stereo not given)	–	inactive: -10.4%
CC(=O)C1=C(O)CC(C)(C)CC1=NCCc1nc2ccccc2[nH]1	–	inactive: 1.52%
Cc1cc2ncn(C(=O)N3CCC(C)CC3)c2cc1C	–	inactive: 29.2%
O=C(N/N=C/c1cccnc1)c1ccc(F)cc1	inconclusive: 11.2 µM [activator, single point]	–
O=C(COC(=O)/C=C/c1ccccc1)Nc1ccc(Cl)cn1	–	inactive: 22.6%
O=C(NCCc1ccccc1)Nc1ccc(Cl)cc1	inconclusive: 2.31 µM [activator, partial curve, poor fit]	–
CCN(CC)C(=O)c1ccc(NC(=O)c2ccc(-c3nn(C)c(=O)c4ccccc34)cc2)cc1	inactive and inconclusive: 501 nM [inhibitor, full curve, poor fit]	–
Cc1c(C(=O)NCC2COc3ccccc3O2)oc2ccc(S(=O)(=O)N3CCOCC3)cc12 (stereo not given)	inconclusive: 9.2 µM [inhibitor, partial curve]	–
CCOC(=O)CC(NC(=O)c1cc2ccccc2oc1=O)c1cccc([N+](=O)[O-])c1 (stereo not given)	–	inactive: 10.7%
O=C(CCc1ccccc1)Nc1ccccc1	inconclusive: 3.55 µM [activator, full curve, poor fit]	–
COc1ccccc1CCNC1CCC(C(C)(C)C)CC1 (stereo not given)	inconclusive: 29.1 µM [inhibitor, single point]	–
CN(Cc1nccn1C)C(=O)c1cc(COc2ccc3ncccc3c2)on1	inconclusive: 6.31 µM [inhibitor, full curve, poor fit]	–
Cc1nnc(NC(=O)c2ccc3nccnc3c2)s1	inconclusive: 17.8 µM [activator, partial curve, poor fit]	–
Cc1cc(Br)ccc1NC(=O)CSc1c2c(nc3ccccc13)CCC2	inconclusive: 35.5 µM [inhibitor, single point]	–

SMILES	Potency	activity change, negative = inhibition
CCc1ccc(/C=C\C(=O)N2CCCC2)cc1	inconclusive: 3.98 µM [activator, partial curve]	–
C#Cc1ccc(CN2CCN(CCCc3ccccc3)C(CCO)C2)cc1 (stereo not given)	–	inactive: 3.52% [at 46.1 µM]
O=C(Cn1cnc2ccccc2c1=O)Nc1nc2ccccc2s1	–	inactive: 2.5% [at 46.1 µM]
O=C(NCCc1ccc(Cl)cc1)C1CCCN(c2ncnc3c2nc2n3CCCCC2)C1 (stereo not given)	–	inactive: -4.77% [at 46.1 µM]
Clc1ccccc1CSc1nnc(-c2ccccn2)n1Cc1ccco1	inconclusive: 29.1 µM [inhibitor, partial curve, poor fit]	–
CCOc1ccc(CC(=NCCc2ccccc2)C2=C(O)CC(C)(C)CC2=O)cc1OCC	–	inactive: 30.7%
O=C(C1CCC(Cn2c(=S)[nH]c3ccccc3c2=O)CC1)N1CCN(c2ccccc2)CC1 (stereo not given)	inconclusive: 23.1 µM [inhibitor, single point]	–
CC(C)(C)c1cc(CCC(=O)NNC(=O)c2ccco2)cc(C(C)(C)C)c1O	active: 8.91 µM	–
CC1C(C#N)=C(N)OC2=C1C(=O)CCC2 (stereo not given)	inconclusive: 2.51 µM [activator, partial curve, poor fit]	–
Oc1ccc(/C=N/NP(=S)(c2ccccc2)c2ccccc2)cc1O	–	inactive: 6.48%
Nc1ncn([C@@H]2O[C@H](CO)[C@@H](O)[C@H]2O)c(=O)n1	inconclusive: 10 µM [inhibitor, partial curve] and inconclusive: 8.2 µM [inhibitor, partial curve, poor fit]	–
CC(COc1ccccc1)N(CCCl)Cc1ccccc1 (stereo not given)	inactive and inconclusive: 31.6 µM [inhibitor, single point]	–
COc1ccc(CCNC(=O)c2cc(C)oc2C)cc1OC	–	inactive: -0.174% [at 46.1 µM]
CC(=O)N1C(=S)NC(=O)/C1=C1/C(=O)N(CC(=O)Nc2cccc(C)c2)c2ccccc21	inconclusive: 17.8 µM [inhibitor, partial curve, poor fit]	–
CCC(=O)Nc1ccc(Br)c(Cl)c1	inconclusive: 5.17 µM [inhibitor, single point]	–
CC[n+]1c(/C=C2\Sc3ccccc3N2C)ccc2cccc(C)c21	inconclusive: 2.51 µM [inhibitor, full curve, poor fit]	–
CCCCN(CCCC)C1=Nc2ccccc2N/C1=C(/C#N)C(=O)OCC	inconclusive: 0.562 µM [inhibitor, full curve, poor fit]	–
CCOC(=O)C(Cc1cc(C(C)=O)ccc1OC(C)C)C(=O)OCC	inconclusive: 35.5 µM [inhibitor, single point]	–
O=C(O)CCc1ccc(-c2cccs2)n1NC(=O)c1ccc(Cl)cc1Cl	–	inactive: -3.29%
COc1cc(CNCc2cccs2)ccc1OCc1cccs1	inconclusive: 29.1 µM [inhibitor, single point]	–
O=c1oc2ccccc2cc1-c1nc(-c2ccccc2)no1	inconclusive: 0.316 µM [activator, partial curve, poor fit]	–
CC(=O)N1CCc2cc(S(=O)(=O)CCC(=O)N3CCN(c4ccccn4)CC3)ccc21	inconclusive: 3.98 µM [inhibitor, partial curve, poor fit]	–

14 consecutive records already listed, for reference:
SMILES	Potency	activity change, negative = inhibition
COc1ccc(CC(=O)OCC(=O)Nc2cc(S(=O)(=O)N3CCOCC3)ccc2N2CCCC2)cc1	inconclusive: 0.562 µM [inhibitor, partial curve, poor fit]	–
O=C(C1CCCN(C2CC(=O)N(c3ccc(F)cc3)C2=O)C1)N1CCCC1 (stereo not given)	inconclusive: 5.62 µM [inhibitor, single point]	–
CC(=O)NC(CCCN1C(=O)c2ccccc2C1=O)c1nnn(C)n1 (stereo not given)	inconclusive: 1.26 µM [activator, single point]	–
O=C(NCCc1ccccc1)c1ccc(Cl)c([N+](=O)[O-])c1	–	inactive: 3.42%
COC(=O)CSc1nnc(CSc2nc(C)cc(C)n2)o1	inconclusive: 2.51 µM [inhibitor, partial curve, poor fit]	–
C=CCC(=O)NC1CC(C)(C)Cc2c1cnn2-c1ccccc1C (stereo not given)	–	inactive: -7.68%
COC(=O)c1ccc(-c2ncc[nH]2)cc1	–	inactive: 6.82%
Cc1[nH]nc(Sc2ccccn2)c1[N+](=O)[O-]	–	inactive: 3.37%
CC1CC(C)CN(CC(C)(C)NS(=O)(=O)c2ccc(Cl)cc2)C1 (stereo not given)	inconclusive: 35.5 µM [inhibitor, single point]	–
Cc1ccc(SCC(=O)NN2C(=O)c3ccccc3C2=O)cc1	–	inactive: 1.77% [at 46.1 µM]
O=C(CSCc1c(F)cccc1Cl)NNC(=S)NC1CCCCC1	–	inactive: -0.751%
CCOc1ccccc1NC(=O)CSc1nc2c(oc3ccccc32)c(=O)n1-c1ccc(F)cc1	inconclusive: 17.8 µM [inhibitor, partial curve, poor fit]	–
Cc1ccc(C)c(CSC2=NCCN2S(=O)(=O)c2ccccc2)c1	inconclusive: 17.8 µM [inhibitor, partial curve, poor fit]	–
Cn1c(=O)c2cc(S(=O)(=O)NC(C(=O)NCc3ccccn3)c3ccccc3)ccc2n(C)c1=O (stereo not given)	–	inactive: -0.875%
